Values from PubChem BioAssay AID504804 (Drosophila RNAi Screening Center, 2011).
Purpose: 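dsRNAs that improve Kc cell survival under doxorubicin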 (primary screen). System: Drosophila Kc cells. Knock-down reagent: long dsRNA against Drosophila genes, 0.5 µg dsRNA per well. Duration: 96 h (48 h knock-down, then 48 h drug). Conditions: doxorubicin 5 µg/ml for 48 h, added 48 h after dsRNA. Measured: 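Luminescent ATP counts per replicate, not normalised, reflecting viable cells after 48 h dsRNA knock-down followed by 48 h of 5 µg/ml doxorubicin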. Reading the numbers: raw ATP luminescence: higher = more viable cells, protection from doxorubicin. Call rule: 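Active when both duplicate wells lie at least 2 SD above the plate mean and protection is confirmed by rescreening and independent dsRNAs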.
The deposit covers about 19,000 reagents; this is an unselected part of those with a known target gene and a result. Over the whole deposit, 47 (0.25%) were called active. 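Signals are raw, not normalised; exact z-scores behind calls not deposited; actives needed confirmation, so some wells reaching 2 SD are inactive.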 Names joined by + are all predicted targets of the reagent.

With knock-down of Rtel1 [DRSC18343] the results were raw ATP luminescence, replicate 1 = 45370; raw ATP luminescence, replicate 2 = 47010; inactive.
After knock-down of Pi3K92E [DRSC16788], the screen gave raw ATP luminescence, replicate 1 = 37033; raw ATP luminescence, replicate 2 = 28887; inactive.
Knock-down of CG32036 [DRSC10362] gave: raw ATP luminescence, replicate 1 = 44677; raw ATP luminescence, replicate 2 = 51527; inactive.
Against Pex23 [DRSC10323], the entry reads raw ATP luminescence, replicate 1 = 47723; raw ATP luminescence, replicate 2 = 36540; inactive.
After knock-down of Pex23 [DRSC10645], the screen gave raw ATP luminescence, replicate 1 = 58273; raw ATP luminescence, replicate 2 = 62073; inactive.
Silencing of CG17294 [DRSC02596] came out at: raw ATP luminescence, replicate 1 = 1.38e5; raw ATP luminescence, replicate 2 = 96227; inactive.
With knock-down of qvr [DRSC05280], the screen gave raw ATP luminescence, replicate 1 = 75567; raw ATP luminescence, replicate 2 = 73920; inactive.
Knock-down of otp [DRSC04050] came out at: raw ATP luminescence, replicate 1 = 41307; raw ATP luminescence, replicate 2 = 47167; inactive.
otp [DRSC04707] scored raw ATP luminescence, replicate 1 = 41957; raw ATP luminescence, replicate 2 = 44083; inactive.
For cysu [DRSC15902], the values are raw ATP luminescence, replicate 1 = 70890; raw ATP luminescence, replicate 2 = 55460; inactive.
Against CG8475 [DRSC03091], the entry reads raw ATP luminescence, replicate 1 = 1.17e5; raw ATP luminescence, replicate 2 = 64080; inactive.
Against Ugt35E1 [DRSC15193] the deposit lists raw ATP luminescence, replicate 1 = 38060; raw ATP luminescence, replicate 2 = 52967; inactive.
With knock-down of Coq4 + Gorab + frc [DRSC10383], the record shows raw ATP luminescence, replicate 1 = 42470; raw ATP luminescence, replicate 2 = 29860; inactive.
Silencing of CG31300 [DRSC14657] resulted in: raw ATP luminescence, replicate 1 = 86700; raw ATP luminescence, replicate 2 = 70710; inactive.
Against beat-VI [DRSC14474] the deposit lists raw ATP luminescence, replicate 1 = 76200; raw ATP luminescence, replicate 2 = 37770; inactive.
With knock-down of beat-VI [DRSC14727], the screen gave raw ATP luminescence, replicate 1 = 72170; raw ATP luminescence, replicate 2 = 51910; inactive.
Knock-down of Cngl [DRSC20318] came out at: raw ATP luminescence, replicate 1 = 1.40e5; raw ATP luminescence, replicate 2 = 1.81e5; inactive.
PolZ2 [DRSC12325] scored raw ATP luminescence, replicate 1 = 76190; raw ATP luminescence, replicate 2 = 64853; inactive.
After knock-down of ringer [DRSC10455], the record shows raw ATP luminescence, replicate 1 = 43950; raw ATP luminescence, replicate 2 = 46017; inactive.
Gclm [DRSC15677] scored raw ATP luminescence, replicate 1 = 35507; raw ATP luminescence, replicate 2 = 38330; inactive.
For Nepl18 [DRSC14879], the values are raw ATP luminescence, replicate 1 = 60600; raw ATP luminescence, replicate 2 = 55290; inactive.
For Coq7 + shf [DRSC18448], the entry reads raw ATP luminescence, replicate 1 = 38130; raw ATP luminescence, replicate 2 = 40250; inactive.
For Imp [DRSC18861], the values are raw ATP luminescence, replicate 1 = 2.58e5; raw ATP luminescence, replicate 2 = 2.73e5; inactive.
Silencing of CG5004 [DRSC19929] came out at: raw ATP luminescence, replicate 1 = 3.09e5; raw ATP luminescence, replicate 2 = 2.89e5; inactive.
CG5004 [DRSC19930] gave raw ATP luminescence, replicate 1 = 3.53e5; raw ATP luminescence, replicate 2 = 2.36e5; inactive.
With knock-down of CG5004 [DRSC20123] the results were raw ATP luminescence, replicate 1 = 1.40e5; raw ATP luminescence, replicate 2 = 1.44e5; inactive.
Cyp6d5 [DRSC16634] scored raw ATP luminescence, replicate 1 = 53883; raw ATP luminescence, replicate 2 = 33570; inactive.
CG15882 [DRSC19735] gave raw ATP luminescence, replicate 1 = 3.61e5; raw ATP luminescence, replicate 2 = 2.92e5; inactive.
